From patent publication US10561763B2, “Oxygen generating biomaterial” (THE BOARD OF REGENTS OF THE UNIVERSITY OF TEXAS SYSTEM, priority 2013, dated 2020)
The name of at least one read-out is uncertain. For at least one compound, name, drawing or mass did not settle the structure.

Experiment: indirect measure of oxygen storage and recovery: absorption spectra of rubrene after photo-oxidation and after heating
Format: physicochemical
[1] = heating at 50° C. for 120 minutes, without beta-carotene

Row | Structure (SMILES) | recovery of rubrene (525 nm peak) by heating in presence of beta-carotene (water bath 1 hour at 50° C., 0.004 g rubrene and 0.0015 g beta-carotene per 24 mL isopropanol) | recovery of the original rubrene as a result of heating [1] | recovery of the rubrene converted to endoperoxide as a result of heating [1]
1 | c1ccc(-c2c3ccccc3c(-c3ccccc3)c3c(-c4ccccc4)c4ccccc4c(-c4ccccc4)c23)cc1 [Rubrene, 5,6,11,12-tetraphenylnaphthacene] | fully recovered | – | –
2 | c1ccc(-c2c3c(c(-c4ccccc4)c4ccccc24)C2(c4ccccc4)OOC3(c3ccccc3)c3ccccc32)cc1 [rubrene endoperoxide] | – | about 75% | about 55%
